Data from paper PMC4560775.
These are yes or no findings as the source states them, for the method shown. Binding seen in cells or lysates may run through a third protein. Some binding calls cover weakened binding; strength is not graded here. Sequences can lack the tags named with a protein.

Protein sequences, listed by entry. Tags and fused reporters are not part of them. Residues count along the entry.
UniProt P29317, residues 24-976: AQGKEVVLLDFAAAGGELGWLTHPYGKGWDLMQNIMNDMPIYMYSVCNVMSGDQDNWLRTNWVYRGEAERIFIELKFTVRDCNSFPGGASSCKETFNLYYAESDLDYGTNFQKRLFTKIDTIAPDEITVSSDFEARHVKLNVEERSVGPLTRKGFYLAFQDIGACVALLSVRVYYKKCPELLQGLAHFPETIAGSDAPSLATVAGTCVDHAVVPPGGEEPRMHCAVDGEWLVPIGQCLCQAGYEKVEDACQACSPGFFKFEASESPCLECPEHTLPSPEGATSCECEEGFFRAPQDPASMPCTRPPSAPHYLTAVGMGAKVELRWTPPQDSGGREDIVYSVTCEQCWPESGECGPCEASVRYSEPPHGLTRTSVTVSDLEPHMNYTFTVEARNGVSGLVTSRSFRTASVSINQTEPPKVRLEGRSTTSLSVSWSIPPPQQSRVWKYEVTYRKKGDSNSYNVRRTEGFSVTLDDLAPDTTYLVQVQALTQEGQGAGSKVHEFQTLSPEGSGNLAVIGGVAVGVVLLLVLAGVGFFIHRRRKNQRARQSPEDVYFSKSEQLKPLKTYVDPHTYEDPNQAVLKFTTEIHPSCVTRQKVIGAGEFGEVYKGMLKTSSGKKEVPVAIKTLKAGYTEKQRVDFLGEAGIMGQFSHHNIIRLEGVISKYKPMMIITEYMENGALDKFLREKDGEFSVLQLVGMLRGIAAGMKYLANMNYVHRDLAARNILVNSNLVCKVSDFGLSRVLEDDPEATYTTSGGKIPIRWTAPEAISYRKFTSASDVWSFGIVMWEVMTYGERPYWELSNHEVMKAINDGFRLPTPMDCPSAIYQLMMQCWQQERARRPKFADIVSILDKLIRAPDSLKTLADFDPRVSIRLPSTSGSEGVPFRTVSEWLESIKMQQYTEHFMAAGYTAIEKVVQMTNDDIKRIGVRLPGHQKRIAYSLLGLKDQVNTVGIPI

Target: EphA2-mCitrine (human) (UniProt P29317)
Experiment: FRET or BRET; FLIM-FRET in living Cos-7 cells; donor EphA2-mCitrine, acceptor mCherry-PTP1B D/A; no ligand; without or with co-expressed bfp-Rab11a

B1: mCherry-tagged PTP1B-D181A (enzyme, UniProt P18031 1-435)
chain: MEMEKEFEQIDKSGSWAAIYQDIRHEASDFPCRVAKLPKNKNRNRYRDVSPFDHSRIKLHQEDNDYINASLIKMEEAQRSYILTQGPLPNTCGHFWEMVWEQKSRGVVMLNRVMEKGSLKCAQYWPQKEEKEMIFEDTNLKLTLISEDIKSYYTVRQLELENLTTQETREILHFHYTTWPAFGVPESPASFLNFLFKVRESGSLSPEHGPVVVHCSAGIGRSGTFCLADTCLLLMDKRKDPSSVDIKKVLLEMRKFRMGLIQTADQLRFSYLAVIEGAKFIMGDSSVQDQWKELSHEDLEPPPEHIPPPPRPPKRILEPHNGKCREFFPNHQWVKEETQEDKDCPIKEEKGSPLNAAPYGIESMSQDTEVRSRVVGGSLRGAQAASPAKGEPSLPEKDEDHALSYWKPFLVNMCVATVLTAGAYLCYRFLFNSNT
Question: B1 was tested. Which binding did it give?
Answer: Its binding is “binds”.
